Hit rate of the full screen: of about 350,000 compounds, about 1,200 (0.34%) were called active. This list was built around the results that the source calls inconclusive (neither active nor inactive); the mix of calls is not that of the screen. Calls follow the shape of the dose curve; as a rule, active = well fitted inhibition curve with a large enough effect; inconclusive = small, poorly fitted or top-dose-only effect; inactive = no such curve, though single readings can be large or run the other way. Where the call is inconclusive, the potency comes from a doubtful curve fit.
molecular target: DNA repair nuclease/redox regulator APEX1 (Homo sapiens) (UniProt P27695); assay: qHTS Assay for Inhibitors of the Human Apurinic/apyrimidinic Endonuclease 1 (APE1); details: recombinant APE1, TAMRA/BHQ-2 abasic DNA cleavage fluorescence; activity change, negative = inhibition: at 65.8 µM (top of the series); also: nearly all actives have a fitted effect of over 55% in size;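 as to activity change, negative = inhibition: plate controls were vehicle for no effect and reference inhibitor for full effect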
Outline: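 Step 1: APE1 (0.75 nM) with compound, 15 min RT. Step 2: add 50 nM fluorophore/quencher THF duplex. Step 3: three fluorescence reads 60 s apart (525/598 nm); read 3 minus read 1 = reaction progress.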
Potency is read from the fitted curve at half-maximal effect.

Protein sequences, listed by entry. Tags and fused reporters are not part of them.
UniProt P27695, whole entry, looked up: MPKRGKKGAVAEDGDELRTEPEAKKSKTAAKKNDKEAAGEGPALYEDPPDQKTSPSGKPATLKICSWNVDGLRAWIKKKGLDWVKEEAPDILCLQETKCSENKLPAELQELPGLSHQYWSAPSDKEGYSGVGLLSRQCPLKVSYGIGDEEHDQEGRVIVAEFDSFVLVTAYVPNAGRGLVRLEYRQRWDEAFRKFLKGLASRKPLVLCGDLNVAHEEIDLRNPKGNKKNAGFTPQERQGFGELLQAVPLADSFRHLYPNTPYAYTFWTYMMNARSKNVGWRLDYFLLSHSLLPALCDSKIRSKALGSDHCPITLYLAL

Row | Structure (SMILES) | Potency | activity change, negative = inhibition
1 | COc1ccc2c(c1)CCN(C(=O)CCl)C2C1C(=O)CCCC1=O (stereo unspecified) | inconclusive: 0.355 µM [inhibitor, partial curve, poor fit] | 
2 | O=C(N/N=C/C(Cl)=C/c1ccc([N+](=O)[O-])cc1)C(=O)Nc1cccc(C(=O)O)c1 | inconclusive: 0.0089 µM [inhibitor, full curve, poor fit] | 
3 | COc1ccc(-c2nn(-c3ccccc3)cc2/C=C2/SC(=S)N(CCCC(=O)O)C2=O)c(C)c1 | active: 29.9 µM | 
4 | O=C(CSc1nnc(NC2CCCCC2)s1)Nc1ccc2c(c1)C(=O)c1ccccc1C2=O | inconclusive: 3.55 µM [inhibitor, partial curve, poor fit] | 
5 | O=C(CCCN1C(=O)c2cccc3cccc(c23)C1=O)NCc1cccnc1 | inconclusive: 39.8 µM [inhibitor, single point] | 
6 | Cc1cc(C)cc(N(CC(=O)NC2CCC(C)CC2)S(=O)(=O)c2c(C)[nH]c(=O)[nH]c2=O)c1 (stereo unspecified) | inconclusive: 0.112 µM [inhibitor, full curve, poor fit] | 
7 | O=C(C1COc2ccccc2O1)N1CCc2ccccc21 (stereo unspecified) | inconclusive: 22.4 µM [inhibitor, partial curve] | 
8 | CC(C)CCC[C@@H](C)[C@@H]1CC[C@H]2C3=CC=C4CC(O)CC[C@]4(C)[C@H]3CC[C@@]21C (stereo partly specified) |  | inactive: -10.1%
9 | CCOC(=O)c1c(C)[nH]c(C(=O)C(C)OC(=O)c2ccc(NC(=O)CC#N)cc2)c1C (stereo unspecified) |  | inactive: 10.8%
10 | O=C(CCC(=O)NNC(=O)COc1ccc(Br)cc1)NCc1ccccc1 |  | inactive: -1.2%
11 | COc1cccc(Cn2c(=O)c(-c3ccc(Cl)cc3)nc3cncnc32)c1 | inconclusive: 44.7 µM [inhibitor, single point] | 
12 | COc1ccc(NC(=O)c2ccccc2NS(=O)(=O)c2ccc(C)cc2)c([N+](=O)[O-])c1 | inconclusive: 28.2 µM [inhibitor, partial curve] | 
13 | Cc1cc(OC(=O)c2cccs2)ccc1C(C)C | inconclusive: 0.708 µM [inhibitor, full curve, poor fit] | 
14 | O=S(=O)(Nc1ccc(Cc2ccncc2)cc1)c1ccc(Cl)s1 | inconclusive: 44.7 µM [inhibitor, single point] | 
15 | CC(=O)Nc1ccc(C=NNc2ccc([N+](=O)[O-])cc2S(=O)(=O)Nc2ccccc2C(=O)O)cc1 | inconclusive: 37.7 µM [inhibitor, single point] | 
16 | CN(C)c1nc(OCCNC(=O)COc2ccc(Cl)cc2Cl)nc(N(C)C)n1 | inconclusive: 6.31 µM [inhibitor, single point] | 
17 | C/C(=N/N=C/c1ccc(N(C)C)cc1)c1ccccc1 | inconclusive: 44.7 µM [inhibitor, single point] | 
18 | COC(=O)c1ccc2c(=O)n(-c3ccccc3)c(SCN3C(=O)c4ccccc4C3=O)nc2c1 | inconclusive: 1.78 µM [inhibitor, partial curve] | 
19 | O=C(O)c1ccccc1C(=O)Nn1cnnc1 |  | inactive: 22.1%
20 | O=C(O)c1cc(N/N=C/c2ccc(N3CCOCC3)cc2)ccc1Cl | inconclusive: 31.6 µM [inhibitor, single point] | 
21 | CC1=N/C(=C/c2ccco2)C(=O)O1 | active: 25.1 µM | 

Row | Structure (SMILES) | Potency | activity change, negative = inhibition
22 | COC(=O)c1cc2ccsc2n1CC(=O)N1CCCc2ccccc21 | inconclusive: 3.98 µM [inhibitor, partial curve] | 
23 | CC(C)S(=O)(=O)c1nsc2nc(=O)c(/C=C3\C=Nc4ccccc43)c(N)n12 | inconclusive: 39.8 µM [inhibitor, single point] | 
24 | COc1ccc(CC(=O)Nc2ccc(C(=O)O)cc2NC(=O)Cc2ccc(OC)cc2)cc1 | inconclusive: 8.91 µM [inhibitor, single point] | 
25 | N/C(=N\OC(=O)c1ccc(Cl)cc1[N+](=O)[O-])c1cccnc1 | inconclusive: 3.98 µM [inhibitor, single point] | 
26 | COc1ccc(C2C3C=CCCC3(C)C(=O)N2Cc2ccccc2)cc1Cl (stereo unspecified) |  | inactive: 8.73%
27 | COc1ccc(-c2nc3ccccc3c(=O)n2CCOc2c(C)cccc2C)cc1 | inconclusive: 8.91 µM [inhibitor, partial curve, poor fit] | 
28 | O=C(Cc1ccccc1Cl)NC1(O)C(=O)c2ccccc2C1=O | inconclusive: 44.7 µM [inhibitor, single point] | 
29 | COC(=O)c1sccc1N/N=C/c1cccc(OC)c1O | inconclusive: 0.0045 µM [inhibitor, full curve, poor fit] | 
30 | Cc1ccc(C(=O)N2CCN(c3ccccc3Cl)CC2)cc1[N+](=O)[O-] | inconclusive: 15.8 µM [inhibitor, partial curve] | 
31 | O=C(OCCN1C(=O)c2cccc3c(N4CCOCC4)ccc(c23)C1=O)c1ccc(Cl)cc1Cl |  | inactive: -8.07%
32 | S=c1[nH]nc(-c2n[nH]c3c2CCC3)n1/N=C/C=C/c1ccco1 | inconclusive: 12.6 µM [inhibitor, partial curve] | 
33 | N#Cc1ccc(NC(=O)CSc2nc3[nH]c(=O)cc(O)c3s2)cc1 | inconclusive: 0.752 µM [inhibitor, full curve] | 
34 | O=C(Nc1ccc2c(c1)OCO2)c1cnc2n(c1=O)CCS2 | inconclusive: 0.447 µM [inhibitor, full curve, poor fit] | 
35 | COc1ccc(OCCOc2ccc(/C=C3\C(=N)N4N=C(C)SC4=NC3=O)cc2)cc1 | active: 9.47 µM | 
36 | COc1cc(N2CCCC2)c(OC)cc1/C=C(/C#N)c1cccc(Br)c1 | inconclusive: 39.8 µM [inhibitor, single point] | 
37 | Cc1nc(N)sc1-c1csc(Nc2cccc(C(=O)O)c2)n1 |  | inactive: 18.7%
38 | O=C(/C=C/c1ccc(O)c(O)c1)O[C@H](Cc1ccc(O)c(O)c1)C(=O)O | active: 0.126 µM | 
39 | O=C(Nc1ccc(F)cc1)Nc1ccc(N2CCOCC2)c2nonc12 | inconclusive: 44.7 µM [inhibitor, single point] | 
40 | O=C(c1cc(-c2cccc(O)c2)on1)N1CCN(C(c2ccccc2)c2ccccc2)CC1 | inconclusive: 39.8 µM [inhibitor, single point] | 
41 | C#Cc1ccc([C@@H]2C=C(C(=O)O)O[C@H](OCCCCO)C2)cc1 | inconclusive: 31.6 µM [inhibitor, partial curve, poor fit] | 

3 records drawn at random from the list so far:
Row | Structure (SMILES) | Potency | activity change, negative = inhibition
27 | COc1ccc(-c2nc3ccccc3c(=O)n2CCOc2c(C)cccc2C)cc1 | inconclusive: 8.91 µM [inhibitor, partial curve, poor fit] | 
26 | COc1ccc(C2C3C=CCCC3(C)C(=O)N2Cc2ccccc2)cc1Cl (stereo unspecified) |  | inactive: 8.73%
41 | C#Cc1ccc([C@@H]2C=C(C(=O)O)O[C@H](OCCCCO)C2)cc1 | inconclusive: 31.6 µM [inhibitor, partial curve, poor fit] | 

— PubChem BioAssay AID2517 (National Center for Advancing Translational Sciences (NCATS), 2010)
